Source: PMC4502471
No constants are given. Whether binding was seen depends on the method and setting. In cells and extracts the contact can be indirect. Here binding means that the protein was enriched with, or labelled near, the bait; the list need not be complete.

Sequences of proteins named here, by UniProt entry; tags and fusion partners are left off.
UniProt Q07955: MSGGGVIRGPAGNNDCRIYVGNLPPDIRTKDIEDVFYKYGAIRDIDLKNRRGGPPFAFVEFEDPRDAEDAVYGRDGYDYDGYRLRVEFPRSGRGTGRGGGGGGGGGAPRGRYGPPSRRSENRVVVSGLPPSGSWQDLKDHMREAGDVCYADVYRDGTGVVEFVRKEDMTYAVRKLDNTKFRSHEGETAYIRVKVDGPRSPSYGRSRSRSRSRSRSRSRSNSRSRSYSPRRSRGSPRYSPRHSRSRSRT
UniProt O75533: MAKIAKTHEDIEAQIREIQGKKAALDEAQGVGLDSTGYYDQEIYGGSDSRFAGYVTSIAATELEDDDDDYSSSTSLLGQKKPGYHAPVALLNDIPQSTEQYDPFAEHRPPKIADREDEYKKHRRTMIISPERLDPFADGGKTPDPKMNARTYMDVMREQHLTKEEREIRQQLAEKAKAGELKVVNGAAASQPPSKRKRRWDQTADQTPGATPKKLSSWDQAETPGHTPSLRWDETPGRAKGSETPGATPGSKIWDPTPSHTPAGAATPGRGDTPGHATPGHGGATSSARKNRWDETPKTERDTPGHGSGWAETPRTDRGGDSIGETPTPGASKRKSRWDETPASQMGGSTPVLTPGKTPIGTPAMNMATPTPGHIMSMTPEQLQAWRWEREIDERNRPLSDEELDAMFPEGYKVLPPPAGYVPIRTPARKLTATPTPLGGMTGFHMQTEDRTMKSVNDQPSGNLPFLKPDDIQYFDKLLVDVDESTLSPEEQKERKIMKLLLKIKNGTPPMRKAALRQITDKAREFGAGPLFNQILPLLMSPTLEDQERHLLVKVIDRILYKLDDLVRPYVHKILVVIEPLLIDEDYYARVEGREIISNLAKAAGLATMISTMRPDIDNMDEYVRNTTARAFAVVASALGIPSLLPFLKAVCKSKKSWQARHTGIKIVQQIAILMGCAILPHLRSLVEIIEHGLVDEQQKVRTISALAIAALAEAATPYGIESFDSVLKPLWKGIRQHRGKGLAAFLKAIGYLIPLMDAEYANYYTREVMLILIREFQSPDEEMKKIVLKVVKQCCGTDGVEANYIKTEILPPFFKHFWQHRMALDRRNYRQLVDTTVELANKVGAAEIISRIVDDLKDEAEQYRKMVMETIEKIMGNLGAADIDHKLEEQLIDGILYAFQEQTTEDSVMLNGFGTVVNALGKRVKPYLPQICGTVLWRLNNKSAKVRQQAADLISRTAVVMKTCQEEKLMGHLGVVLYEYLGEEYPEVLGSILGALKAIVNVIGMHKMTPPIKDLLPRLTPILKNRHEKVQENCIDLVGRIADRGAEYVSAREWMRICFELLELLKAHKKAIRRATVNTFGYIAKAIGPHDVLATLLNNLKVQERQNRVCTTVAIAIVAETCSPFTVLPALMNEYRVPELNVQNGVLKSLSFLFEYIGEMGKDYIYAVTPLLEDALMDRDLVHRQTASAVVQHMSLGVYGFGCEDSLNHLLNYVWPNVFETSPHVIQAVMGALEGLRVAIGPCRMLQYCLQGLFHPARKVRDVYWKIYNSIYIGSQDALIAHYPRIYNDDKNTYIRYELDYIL
UniProt Q13435: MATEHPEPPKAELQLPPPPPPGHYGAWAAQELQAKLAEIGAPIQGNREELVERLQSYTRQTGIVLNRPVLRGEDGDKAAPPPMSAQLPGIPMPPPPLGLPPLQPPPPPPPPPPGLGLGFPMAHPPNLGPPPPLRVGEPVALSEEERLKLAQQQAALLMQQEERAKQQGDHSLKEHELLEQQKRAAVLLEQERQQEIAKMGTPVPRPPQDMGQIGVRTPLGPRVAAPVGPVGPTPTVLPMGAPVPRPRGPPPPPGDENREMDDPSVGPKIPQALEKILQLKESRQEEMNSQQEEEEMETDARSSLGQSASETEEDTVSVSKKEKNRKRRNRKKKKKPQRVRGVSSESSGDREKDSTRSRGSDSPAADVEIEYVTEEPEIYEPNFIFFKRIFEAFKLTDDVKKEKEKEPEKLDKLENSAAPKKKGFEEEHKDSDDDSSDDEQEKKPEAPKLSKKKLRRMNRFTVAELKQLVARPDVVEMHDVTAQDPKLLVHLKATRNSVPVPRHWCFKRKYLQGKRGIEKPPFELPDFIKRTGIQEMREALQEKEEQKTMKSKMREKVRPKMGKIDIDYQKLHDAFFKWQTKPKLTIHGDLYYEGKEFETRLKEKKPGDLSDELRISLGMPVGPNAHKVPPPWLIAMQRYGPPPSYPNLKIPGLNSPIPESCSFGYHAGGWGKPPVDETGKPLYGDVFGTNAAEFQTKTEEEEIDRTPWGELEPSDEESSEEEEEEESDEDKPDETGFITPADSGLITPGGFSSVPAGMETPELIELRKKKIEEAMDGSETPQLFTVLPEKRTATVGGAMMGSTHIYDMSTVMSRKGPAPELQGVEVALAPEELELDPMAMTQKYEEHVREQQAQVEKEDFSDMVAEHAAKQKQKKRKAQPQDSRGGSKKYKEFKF

Target: T7-tagged SRSF1 (human) (UniProt Q07955)
Test: affinity purification with mass spectrometry; T7-tagged bait induced with doxycycline in HeLa cells; lysate treated with nuclease (1 U/mL RNase A, 40 U/mL RNase T1, 500 U/mL Benzonase, 2 mM MgCl2) for 30 min before immunoprecipitation on Dynabeads Protein G, 1 h at 4 °C; on-bead digestion, MudPIT LTQ MS; enrichment against uninduced (Dox-) cells

| binding | Substance |
| --- | --- |
| binds | SF3B1 (from UniProt O75533 1-1304) |
| binds | SF3B2 (from UniProt Q13435 1-895) |
